Taken from: PubChem BioAssay AID1224830 (NIAID, 2016)
Here is a random part of about 18,000 reagents tested. About 2,900 of them (16%) were called active. 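Calls are made per well; low scores hint the gene aids the LPS response, high scores that it dampens it.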 Unmarked entries are inactive. Repeated entries: four replicate wells of each siRNA pool.

Assay: 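Host factors that control LPS-induced TNF expression in human macrophages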 (primary screen)
Cells: human THP-1 monocytic leukaemia cells, TNF dual-luciferase reporter clone, PMA-differentiated to macrophage-like cells
Knock-down reagent: siRNA pool against human genes, 50 nM
Time to read-out: LPS for 4 h, given about 3 days after siRNA transfection
Treatment: bacterial LPS (TLR4 ligand), 10 ng/ml
Measured: 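Ratio of firefly to renilla light, scaled to the plate median and expressed as a robust z-score per replicate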
Scale: TNF reporter robust z-score: higher = stronger TNF reporter response to LPS
Call rule: 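Each well counts as active if its z-score is over 2.8 or under -1.5; controls are left without a call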

Which result is listed for IL25?
TNF reporter robust z-score: 1.1

For IL25, how do the results read?
TNF reporter robust z-score: 0.96

How did the screen score IL25?
TNF reporter robust z-score: -0.46

For IL25, what was measured?
TNF reporter robust z-score: 0.21

What did the screen give for OR6B3?
TNF reporter robust z-score: -0.38

With OR6B3, how do the results read?
TNF reporter robust z-score: 0

For OR6B3, what does the deposit list?
TNF reporter robust z-score: 0.11

With OR6B3, how do the results read?
TNF reporter robust z-score: 0.56

What is on record for PRDM14?
TNF reporter robust z-score: 1.4

Which result is listed for PRDM14?
TNF reporter robust z-score: 1.29

What did the screen give for PRDM14?
TNF reporter robust z-score: -1.13

Which result is listed for PRDM14?
TNF reporter robust z-score: -0.7

What is on record for PGBD1?
TNF reporter robust z-score: 2.27

With PGBD1, what does the deposit list?
TNF reporter robust z-score: 2.13

Which result is listed for PGBD1?
TNF reporter robust z-score: 2.05

With PGBD1, what does the deposit list?
TNF reporter robust z-score: 2.94 (active)

With B3GAT3, what was measured?
TNF reporter robust z-score: -0.58

With B3GAT3, what was measured?
TNF reporter robust z-score: -1.28

For B3GAT3, what was measured?
TNF reporter robust z-score: -1.2

For B3GAT3, how do the results read?
TNF reporter robust z-score: -0.73

Entries listed so far marked active (1):
PGBD1 — TNF reporter robust z-score = 2.94 (active)
